These results are taken from article PMC7815719.

Protein sequences, listed by entry. Tags and fused reporters are not part of them. Residues count along the entry.
UniProt P01375, residues 77-233: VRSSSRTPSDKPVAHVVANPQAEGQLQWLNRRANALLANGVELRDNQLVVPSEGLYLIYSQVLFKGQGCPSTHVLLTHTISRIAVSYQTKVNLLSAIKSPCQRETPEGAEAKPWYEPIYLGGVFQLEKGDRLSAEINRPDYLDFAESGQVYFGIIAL
UniProt P49137: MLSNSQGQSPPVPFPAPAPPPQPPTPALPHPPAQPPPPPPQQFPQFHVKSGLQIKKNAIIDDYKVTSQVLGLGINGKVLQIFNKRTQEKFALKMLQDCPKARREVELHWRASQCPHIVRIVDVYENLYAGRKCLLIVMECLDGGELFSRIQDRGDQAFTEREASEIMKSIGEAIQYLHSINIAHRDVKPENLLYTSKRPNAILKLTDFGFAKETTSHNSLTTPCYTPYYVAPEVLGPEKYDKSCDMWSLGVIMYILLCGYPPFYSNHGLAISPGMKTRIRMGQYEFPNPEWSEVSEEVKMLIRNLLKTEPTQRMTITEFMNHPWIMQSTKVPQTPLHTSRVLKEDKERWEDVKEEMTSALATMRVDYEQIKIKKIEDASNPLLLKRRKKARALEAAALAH

Results are given in words; binding and its absence hold for the method and conditions named. Binding seen in cells or lysates may run through a third protein.

For this test, the target named is GST-hTNF (residues 77-233) (human) (UniProt P01375). Nature of the test: pull-down; WT and MIB2 KO HeLa cells (similar in HCT116) stimulated with GST-TNF (1 μg/ml), with or without BV6 (0.1 μM); lysed in IP buffer; TNFR-containing complex I precipitated with glutathione-Sepharose overnight at 4 °C; immunoblot; only the target purified. Background: Immunoblotting shows a protein as a band on a membrane.

As for “endogenous MK2 (from UniProt P49137 1-400) (enzyme)”, the binding result was “no binding”.
